Test results from PubChem BioAssay AID504834 (National Center for Advancing Translational Sciences (NCATS), 2011).
Among all 320,000 compounds or so, about 22,000 (6.9%) were called active. Inconclusive means that the source gave no clear call. Such entries were picked first, then a sample of the others. The call rests on the fitted dose curve; in most records, active means well fitted inhibition curve with a large enough effect; inconclusive means small, poorly fitted or top-dose-only effect, or another doubt; inactive means no such curve, though single readings can be large or run the other way. A potency beside an inconclusive call is a rough fit, not a confirmed value.

experiment: Primary qHTS for delayed death inhibitors of the malarial parasite plastid, 96 hour incubation; conditions: P. falciparum luciferase reporter growth; series mostly up to 28.7 µM
In short: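 Plates of compound plus infected erythrocytes (2% hematocrit, 0.05% parasitemia final) incubate 96 hours, 37 C, 5% CO2. Detection reagent added; reduced luminescence from the parasites' luciferase reporter flags inhibition.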
Potency means the concentration at half of the fitted maximal effect.

Structure (SMILES) | Potency
N#C/C(=C/Nc1ccccc1)c1ccsc1 | inactive
O=C(Cn1nnc(-c2ccccc2Cl)n1)N1CCCCC1 | inconclusive: 1.65 µM [inhibitor, single point]
C/C(=N\NC(=O)c1c(Cl)c(C)nn1C)c1cccc(NC(=O)C2CCCC2)c1 | inconclusive: 0.0029 µM [inhibitor, full curve, poor fit]
O=C1CN2C(=Nc3ccc(Br)cc3C2c2ccccc2)CCN1 (centres undefined) | inactive
CCCCCCc1nc2ccccc2c(=O)n1NC(=O)c1c(O)c2c(n(CC(C)C)c1=O)CCCC2 | inconclusive: 0.117 µM [inhibitor, full curve, poor fit]
Cc1c(CN2CCCC(CO)(Cc3cccc(Cl)c3)C2)cnn1C (centres undefined) | inconclusive: 18.5 µM [inhibitor, single point]
Cc1cc(NC(=O)CSc2nnc(-c3ccoc3C)n2N)no1 | inconclusive: 0.0657 µM [inhibitor, full curve, poor fit]
CC1CCCC(C)N1C(=O)c1cc(-c2ccc3c(c2)OCO3)on1 (centres undefined) | inactive
C1CCN(c2nc3nonc3nc2NCC2CCOCC2)CC1 | inconclusive: 18.5 µM [inhibitor, single point]
O=C(Cn1ncc2c3ccccc3n(Cc3cccc(Cl)c3)c2c1=O)NCc1ccccn1 | inconclusive: 2.08 µM [inhibitor, single point]
Cc1ccc(N2C(=O)CC(Sc3ncccc3C(=O)O)C2=O)cc1 (centres undefined) | inactive
N#Cc1ccccc1Cn1c(=O)n(CCC(=O)NCc2ccco2)c(=O)c2ccccc21 | inconclusive: 4.65 µM [inhibitor, partial curve, poor fit]
O=C(COC(=O)/C=C/c1cccs1)NC(c1ccccc1)c1ccccc1 | inconclusive: 0.185 µM [inhibitor, full curve, poor fit]
c1ccc(-c2cc(-c3nnc4n3N=C(c3ccc5ccccc5c3)CS4)[nH]n2)cc1 | inconclusive: 10.4 µM [inhibitor, single point]
Cc1ccc(C)c(-n2nnnc2SCC(=O)Nc2c(C)n(C)n(-c3ccccc3)c2=O)c1 | inactive
Cc1cc(C)cc(NC(=O)C2CCN(c3cnccn3)CC2)c1 | inactive
CCc1ccc(S(=O)(=O)Nc2c(NC3CCCCC3)c3ccccc3oc2=O)cc1 | inconclusive: 10.4 µM [inhibitor, single point]
CN(CCC#N)c1ncnc2scc(-c3ccccc3)c12 | inconclusive: 7.38 µM [inhibitor, partial curve, poor fit]
Nc1ccc(C(=O)N/N=C2\CCCc3c2[nH]c2ccccc32)cc1 | inconclusive: 18.5 µM [inhibitor, single point]
CCCCOc1ccc(NC(=O)CN2CCN(Cc3ccccc3)CC2)cc1 | inconclusive: 13.1 µM [inhibitor, single point]
CN(C(=O)CC1C(=O)NCCN1Cc1cccc(F)c1F)C1CCOCC1 (centres undefined) | inconclusive: 18.5 µM [inhibitor, single point]
O=C1N/C(=C/c2ccc(N3CCCC3)cc2)C(=O)N1c1ccccc1 | inconclusive: 5.86 µM [inhibitor, partial curve, poor fit]
O=S(=O)(O)c1cc(O)c2c(N=Nc3ccc(Nc4ccccc4)c4c(S(=O)(=O)O)cccc34)cc(S(=O)(=O)O)cc2c1 | inconclusive: 19 µM [inhibitor, single point]

As a short view, part of the list above:
Structure (SMILES) | Potency
c1ccc(-c2cc(-c3nnc4n3N=C(c3ccc5ccccc5c3)CS4)[nH]n2)cc1 | inconclusive: 10.4 µM [inhibitor, single point]
Cc1ccc(C)c(-n2nnnc2SCC(=O)Nc2c(C)n(C)n(-c3ccccc3)c2=O)c1 | inactive
Cc1cc(C)cc(NC(=O)C2CCN(c3cnccn3)CC2)c1 | inactive

The listing continues.

Structure (SMILES) | Potency
CCC(Oc1ccccc1)C(=O)Nc1ccccc1C(=O)N1CCOCC1 (centres undefined) | inconclusive: 20.8 µM [inhibitor, single point]
COCCOC(=O)c1[nH]c2c(c1C)C(=O)CC(c1ccccc1)C2 (centres undefined) | inconclusive: 18.5 µM [inhibitor, single point]
O=C(Nc1nccs1)c1ccc(COc2c(F)c(F)cc(F)c2F)o1 | inactive
CC(C)(C)NC(=O)NC(=O)CN1CCN(S(=O)(=O)c2ccc3c(c2)CCCC3)CC1 | active: 7.38 µM
O=C(CCCn1c(=O)[nH]c2cc(Cl)ccc2c1=O)NCCCN1CCN(c2ccc(F)cc2)CC1 | inactive
CCOc1ccc(CN(C)CC(=O)Nc2cccc(S(=O)(=O)N(C)c3ccccc3)c2)cc1 | inconclusive: 18.5 µM [inhibitor, single point]
Nc1cccc(CCc2nc3cc4ccccc4cc3[nH]2)c1 | inconclusive: 13.1 µM [inhibitor, single point]
CN(C)S(=O)(=O)Oc1ccsc1C(=O)Nc1ccc(Cl)c(Cl)c1 | inconclusive: 1.31 µM [inhibitor, full curve, poor fit]
COCCNC(=O)c1cc(S(=O)(=O)N2CCCCC2)ccc1N1CCOCC1 | inactive
Cc1cc(C(=O)NCCCN2CCCC2=O)no1 | inactive
O=C(Nc1cccc(F)c1)C1CCN(C(=O)N2CCOc3ccccc32)CC1 | inactive
CC(=O)c1c(C)cc(C)c(CSc2ccccn2)c1C | inconclusive: 18.5 µM [inhibitor, single point]
Cc1ccc(CNC(=O)C2CCC(=O)N(Cc3ccc(Cl)cc3)C2)cc1F (centres undefined) | inconclusive: 18.5 µM [inhibitor, single point]
CCCc1cc(=O)oc2cc(OCC(=O)Nc3ccccn3)ccc12 | inactive
O=C(NCCO)C(c1ccccc1)c1ccccc1 | inconclusive: 2.94 µM [inhibitor, single point]
O=C(COC(=O)/C=C/c1ccc([N+](=O)[O-])cc1)NC1CCCCC1 | inconclusive: 0.586 µM [inhibitor, full curve, poor fit]
O=C(NC(=S)Nc1ccc(N2CCOCC2)c(Cl)c1)c1sc2ccccc2c1Cl | inconclusive: 0.415 µM [inhibitor, full curve, poor fit]
COc1ccc(OC)c(-c2cc(C(=O)Nc3cccc(Cl)c3)no2)c1 | inconclusive: 0.0828 µM [inhibitor, full curve, poor fit]
O=C(O)CN1C(=O)/C(=C\c2cn(-c3ccccc3)nc2-c2ccccc2)SC1=S | inconclusive: 0.465 µM [inhibitor, partial curve, poor fit]
O=C(NC(NC(=O)c1ccccc1)C(=O)c1ccccc1)c1ccccc1 | active: 2.33 µM
COc1ccc(CN2CCNC(=O)C2CC(=O)NCCC2=CCCCC2)cc1OC (centres undefined) | active: 10.4 µM
Cc1ccc(S(N)(=O)=O)cc1NC(=O)c1ccc2c3c(cccc13)CC2 | inconclusive: 7.38 µM [inhibitor, partial curve]
CCOC(=O)c1ccc(Nc2cc(C)nc3nc(C)nn23)cc1 | inconclusive: 10.4 µM [inhibitor, single point]

Structure (SMILES) | Potency
Cc1cccc(C)c1NS(=O)(=O)c1ccc(-c2cnc(C3CC3)o2)cc1 | inconclusive: 18.5 µM [inhibitor, single point]
COc1ccc(CCNC2=NCCS2)cc1 | inconclusive: 11.7 µM [inhibitor, partial curve]
COc1ccc(-c2nn(-c3ccccc3)cc2/C=C2/SC(=S)N(CCC(=O)O)C2=O)cc1 | inconclusive: 16.5 µM [inhibitor, single point]
Cc1ccccc1NS(=O)(=O)c1cc2c(cc1C)N(C)CCO2 | inactive
O=C(Cn1ncc2c(=O)oc3ccccc3c21)NCC1CCCO1 (centres undefined) | inconclusive: 18.5 µM [inhibitor, single point]
Cn1c2ccsc2c2ncn(Cc3ccccc3F)c(=O)c21 | inconclusive: 11.7 µM [inhibitor, partial curve]
CC(=O)Nc1ccc(SCC(=O)Nc2oc(C)c3c(C)n[nH]c(=O)c23)cc1 | inactive
CCOC(=O)c1ccc(NC(=O)CC2C(=O)N(c3ccc(F)cc3)C(=O)N2CCC(C)C)cc1 (centres undefined) | active: 5.86 µM
O=C(O)c1cc(Br)ccc1NS(=O)(=O)c1cccc2nsnc12 | inconclusive: 11.7 µM [inhibitor, partial curve]
CN(Cc1ccccc1)c1nc2c(c(=O)[nH]c(=O)n2C)n1CCCc1ccccc1 | inactive
CC(=O)N1CCc2cc(S(=O)(=O)NCCC(=O)Nc3cccc(C)c3)ccc21 | inconclusive: 18.5 µM [inhibitor, single point]
COc1ccc(-c2nnc(SCC(=O)NCc3cccs3)n2C(C)C)cc1 | inconclusive: 10.4 µM [inhibitor, single point]
CC(Sc1nc(N)cc(N)n1)C(=O)Nc1ccc(N2CCOCC2)cc1 (centres undefined) | inactive
COc1cc2c(cc1OC)CN(CC(=O)Nc1ccc(C)cc1)CC2 | inconclusive: 18.5 µM [inhibitor, single point]
O=C(Nc1ccc(F)cc1)c1cccnc1Oc1ccccc1 | inactive
O=C(COC(=O)C12CC3CC(CC(O)(C3)C1)C2)N1CCN(S(=O)(=O)c2ccc(Cl)cc2)CC1 | inconclusive: 11.7 µM [inhibitor, single point]
Cc1csc(NC(=O)c2cc[n+]([O-])cc2)n1 | inactive
Cc1cc(C(=O)N/N=C/c2ccccc2)c(C)o1 | inactive
CN(C)CC1CCCCC1C1(O)c2ccccc2CSc2sccc21 (centres undefined) | inconclusive: 7.38 µM [inhibitor, partial curve, poor fit]
FC(F)(F)c1nc(-c2cccnc2)ncc1-c1nnnn1-c1ccccc1 | inconclusive: 18.5 µM [inhibitor, single point]
CCOc1ccc(CCNC(=O)COC(=O)c2cccs2)cc1OCC | inconclusive: 20.8 µM [inhibitor, partial curve, poor fit]
O=[N+]([O-])c1ccc(Cl)c(CN2CCN(c3ncccn3)CC2)c1 | inconclusive: 7.38 µM [inhibitor, single point]
COc1ccc(OC)c(NC(=O)COc2coc(CN3CCCc4ccccc43)cc2=O)c1 | inconclusive: 5.22 µM [inhibitor, partial curve]
